# From PMC11166458, “Caskin2 is a novel talin- and Abi1-binding protein that promotes cell motility” (Journal of Cell Science, 2024)
# By UniProt entry, the sequences of proteins in these tests, tags left out. Where a name states a change or a piece, a line headed by the entry shows the natural chain unless it says otherwise.
# UniProt Q8WXE0: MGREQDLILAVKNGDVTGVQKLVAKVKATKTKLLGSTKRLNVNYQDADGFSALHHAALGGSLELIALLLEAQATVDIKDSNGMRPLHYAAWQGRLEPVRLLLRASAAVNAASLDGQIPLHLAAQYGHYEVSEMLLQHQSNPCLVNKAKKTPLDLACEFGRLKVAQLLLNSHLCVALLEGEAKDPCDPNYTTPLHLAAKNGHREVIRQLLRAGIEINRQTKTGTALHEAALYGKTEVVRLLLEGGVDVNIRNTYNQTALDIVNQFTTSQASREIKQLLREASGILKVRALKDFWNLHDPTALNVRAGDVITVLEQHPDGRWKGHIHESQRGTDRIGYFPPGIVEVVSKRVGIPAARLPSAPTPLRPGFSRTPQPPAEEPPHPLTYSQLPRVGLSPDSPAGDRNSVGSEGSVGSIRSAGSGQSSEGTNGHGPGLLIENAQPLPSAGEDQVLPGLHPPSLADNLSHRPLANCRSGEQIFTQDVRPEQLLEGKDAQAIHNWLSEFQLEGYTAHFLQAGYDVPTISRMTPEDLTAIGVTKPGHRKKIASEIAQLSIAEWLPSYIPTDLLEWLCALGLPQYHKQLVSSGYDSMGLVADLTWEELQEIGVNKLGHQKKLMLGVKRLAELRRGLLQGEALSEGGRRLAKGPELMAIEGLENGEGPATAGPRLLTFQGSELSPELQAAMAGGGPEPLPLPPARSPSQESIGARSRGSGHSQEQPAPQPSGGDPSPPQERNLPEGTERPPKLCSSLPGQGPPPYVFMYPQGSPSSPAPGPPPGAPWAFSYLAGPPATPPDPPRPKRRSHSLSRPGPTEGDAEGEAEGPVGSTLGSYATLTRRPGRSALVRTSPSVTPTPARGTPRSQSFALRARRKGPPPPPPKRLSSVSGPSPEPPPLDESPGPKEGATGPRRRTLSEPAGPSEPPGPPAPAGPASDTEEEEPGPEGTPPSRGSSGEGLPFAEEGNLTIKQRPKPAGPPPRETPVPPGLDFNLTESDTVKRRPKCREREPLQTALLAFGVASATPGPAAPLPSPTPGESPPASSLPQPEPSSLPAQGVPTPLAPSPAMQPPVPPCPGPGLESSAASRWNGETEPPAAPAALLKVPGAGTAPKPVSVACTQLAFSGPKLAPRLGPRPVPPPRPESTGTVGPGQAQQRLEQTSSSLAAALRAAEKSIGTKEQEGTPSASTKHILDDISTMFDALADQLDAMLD
# Results are given in words; binding and its absence hold for the method and conditions named. A result given as binding can be weak or reduced; the word gives no strength.
# Target: talin-R7/R8 (residues 1358–1653) (mouse)
# Assay: crystal structure; talin-R7/R8 (32 mg/ml) mixed with Caskin2 LD peptide 1:2; sitting drop, 0.1 M bis-Tris propane pH 7.0, 0.1 M NaBr, 22–26% PEG3350; 2.7 Å; both purified
binder,measurement,value
"STMFDALADQLDAMLD (peptide, UniProt Q8WXE0 1187-1202) [Caskin2-LD peptide (crystallised)]",binding,binds
